Experiment: general procedure: Fmoc solid-phase peptide synthesis; Fmoc-amide anchor resin; DIC/HOBt
Settings: whole synthesis, scale 1 g resin (0.47 mmol/g)

Gly--Pro--Arg--Pro--Ala--NH2
final HPLC purity: 95% pure

From patent publication US5478810A (Behringwerke Aktiengesellschaft, priority 1990, dated 1995)
